According to the supplement of paper PMC10849652:
The other results are listed elsewhere or left out.

The chains behind the UniProt entries cited, without tags or fusion partners. Where a name states a change or a piece, a line headed by the entry shows the natural chain unless it says otherwise.
UniProt P19532: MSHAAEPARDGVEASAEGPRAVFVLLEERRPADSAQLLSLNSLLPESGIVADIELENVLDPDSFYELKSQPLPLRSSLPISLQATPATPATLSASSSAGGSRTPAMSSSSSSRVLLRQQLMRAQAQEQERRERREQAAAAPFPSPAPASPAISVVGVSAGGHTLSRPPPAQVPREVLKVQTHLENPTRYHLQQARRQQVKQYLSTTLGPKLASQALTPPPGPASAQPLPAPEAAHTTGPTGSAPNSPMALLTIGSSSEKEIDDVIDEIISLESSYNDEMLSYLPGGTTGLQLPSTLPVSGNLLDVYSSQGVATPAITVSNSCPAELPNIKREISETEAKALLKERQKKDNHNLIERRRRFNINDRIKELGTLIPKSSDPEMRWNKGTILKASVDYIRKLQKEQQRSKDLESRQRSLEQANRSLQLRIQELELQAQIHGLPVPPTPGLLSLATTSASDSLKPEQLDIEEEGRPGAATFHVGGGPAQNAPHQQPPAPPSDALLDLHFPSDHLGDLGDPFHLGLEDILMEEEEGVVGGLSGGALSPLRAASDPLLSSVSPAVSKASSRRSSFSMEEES
UniProt Q9Y2W1: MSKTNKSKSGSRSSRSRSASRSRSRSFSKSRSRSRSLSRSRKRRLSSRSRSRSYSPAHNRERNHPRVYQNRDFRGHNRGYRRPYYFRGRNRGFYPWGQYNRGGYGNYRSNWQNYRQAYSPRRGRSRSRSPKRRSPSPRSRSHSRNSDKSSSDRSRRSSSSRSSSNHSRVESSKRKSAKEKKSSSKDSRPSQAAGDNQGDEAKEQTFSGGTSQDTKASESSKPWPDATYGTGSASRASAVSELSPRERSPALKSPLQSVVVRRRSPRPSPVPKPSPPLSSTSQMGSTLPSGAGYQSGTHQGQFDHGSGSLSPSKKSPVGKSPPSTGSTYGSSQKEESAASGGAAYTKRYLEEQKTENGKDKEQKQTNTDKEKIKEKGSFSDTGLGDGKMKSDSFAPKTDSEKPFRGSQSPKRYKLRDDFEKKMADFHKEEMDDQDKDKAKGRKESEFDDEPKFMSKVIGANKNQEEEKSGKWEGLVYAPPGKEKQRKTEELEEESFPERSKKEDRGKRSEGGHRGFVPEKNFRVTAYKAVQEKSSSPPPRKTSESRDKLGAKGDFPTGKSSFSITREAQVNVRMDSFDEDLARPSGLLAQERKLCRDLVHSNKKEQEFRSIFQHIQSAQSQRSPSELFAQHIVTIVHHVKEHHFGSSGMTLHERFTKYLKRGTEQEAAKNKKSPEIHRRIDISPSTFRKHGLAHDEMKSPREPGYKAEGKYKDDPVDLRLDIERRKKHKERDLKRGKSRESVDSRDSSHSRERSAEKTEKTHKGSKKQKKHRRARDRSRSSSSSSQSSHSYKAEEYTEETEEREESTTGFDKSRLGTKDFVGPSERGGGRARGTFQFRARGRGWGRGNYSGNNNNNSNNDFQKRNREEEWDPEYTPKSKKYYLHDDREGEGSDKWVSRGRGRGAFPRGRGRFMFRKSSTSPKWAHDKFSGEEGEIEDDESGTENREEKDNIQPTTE
UniProt Q6YHU6: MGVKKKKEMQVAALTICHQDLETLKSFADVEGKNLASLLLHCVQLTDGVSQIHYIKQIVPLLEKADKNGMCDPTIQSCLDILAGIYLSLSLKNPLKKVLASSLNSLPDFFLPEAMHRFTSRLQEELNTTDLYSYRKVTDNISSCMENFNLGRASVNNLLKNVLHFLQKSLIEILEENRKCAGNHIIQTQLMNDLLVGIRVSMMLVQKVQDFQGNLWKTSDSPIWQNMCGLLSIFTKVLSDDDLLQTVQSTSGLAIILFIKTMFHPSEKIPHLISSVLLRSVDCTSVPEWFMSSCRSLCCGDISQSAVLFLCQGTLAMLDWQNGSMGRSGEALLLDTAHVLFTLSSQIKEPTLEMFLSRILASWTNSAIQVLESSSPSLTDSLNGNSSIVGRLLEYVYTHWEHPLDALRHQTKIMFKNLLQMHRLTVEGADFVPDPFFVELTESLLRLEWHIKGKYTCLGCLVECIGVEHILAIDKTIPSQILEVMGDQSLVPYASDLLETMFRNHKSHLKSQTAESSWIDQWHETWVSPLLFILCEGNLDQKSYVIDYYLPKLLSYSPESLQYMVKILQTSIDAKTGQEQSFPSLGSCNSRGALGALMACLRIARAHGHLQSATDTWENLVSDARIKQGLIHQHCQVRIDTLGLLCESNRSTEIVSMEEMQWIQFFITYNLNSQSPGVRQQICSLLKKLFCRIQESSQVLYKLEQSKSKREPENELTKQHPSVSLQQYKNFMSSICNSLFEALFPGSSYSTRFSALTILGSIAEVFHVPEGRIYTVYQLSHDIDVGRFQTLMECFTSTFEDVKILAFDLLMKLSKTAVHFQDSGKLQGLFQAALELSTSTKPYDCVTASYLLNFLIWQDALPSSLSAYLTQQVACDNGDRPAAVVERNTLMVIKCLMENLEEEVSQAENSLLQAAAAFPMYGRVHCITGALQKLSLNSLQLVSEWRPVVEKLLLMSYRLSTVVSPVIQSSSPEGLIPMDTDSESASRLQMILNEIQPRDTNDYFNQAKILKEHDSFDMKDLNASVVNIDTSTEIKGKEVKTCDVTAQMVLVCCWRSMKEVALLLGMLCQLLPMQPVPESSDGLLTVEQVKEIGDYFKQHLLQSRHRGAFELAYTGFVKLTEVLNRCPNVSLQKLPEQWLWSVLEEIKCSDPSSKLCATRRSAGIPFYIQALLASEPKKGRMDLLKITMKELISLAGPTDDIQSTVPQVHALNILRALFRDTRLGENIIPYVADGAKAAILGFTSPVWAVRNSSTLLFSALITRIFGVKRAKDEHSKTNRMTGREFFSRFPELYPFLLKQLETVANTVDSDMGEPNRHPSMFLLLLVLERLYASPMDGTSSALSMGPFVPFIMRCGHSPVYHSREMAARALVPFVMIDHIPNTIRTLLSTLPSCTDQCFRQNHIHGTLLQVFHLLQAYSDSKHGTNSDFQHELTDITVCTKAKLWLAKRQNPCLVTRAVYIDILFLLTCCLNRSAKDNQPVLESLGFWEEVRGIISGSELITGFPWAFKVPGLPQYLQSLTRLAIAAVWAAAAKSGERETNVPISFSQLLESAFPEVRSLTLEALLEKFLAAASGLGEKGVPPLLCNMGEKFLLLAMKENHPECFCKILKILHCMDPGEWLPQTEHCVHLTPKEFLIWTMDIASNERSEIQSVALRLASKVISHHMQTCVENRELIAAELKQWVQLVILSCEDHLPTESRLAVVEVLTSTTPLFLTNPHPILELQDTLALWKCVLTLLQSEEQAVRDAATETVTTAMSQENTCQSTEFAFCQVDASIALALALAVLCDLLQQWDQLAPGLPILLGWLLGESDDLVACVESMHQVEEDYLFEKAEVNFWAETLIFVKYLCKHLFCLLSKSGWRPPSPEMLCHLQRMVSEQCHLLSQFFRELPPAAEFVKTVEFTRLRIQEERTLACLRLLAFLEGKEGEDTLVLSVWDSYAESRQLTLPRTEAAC
UniProt O43615: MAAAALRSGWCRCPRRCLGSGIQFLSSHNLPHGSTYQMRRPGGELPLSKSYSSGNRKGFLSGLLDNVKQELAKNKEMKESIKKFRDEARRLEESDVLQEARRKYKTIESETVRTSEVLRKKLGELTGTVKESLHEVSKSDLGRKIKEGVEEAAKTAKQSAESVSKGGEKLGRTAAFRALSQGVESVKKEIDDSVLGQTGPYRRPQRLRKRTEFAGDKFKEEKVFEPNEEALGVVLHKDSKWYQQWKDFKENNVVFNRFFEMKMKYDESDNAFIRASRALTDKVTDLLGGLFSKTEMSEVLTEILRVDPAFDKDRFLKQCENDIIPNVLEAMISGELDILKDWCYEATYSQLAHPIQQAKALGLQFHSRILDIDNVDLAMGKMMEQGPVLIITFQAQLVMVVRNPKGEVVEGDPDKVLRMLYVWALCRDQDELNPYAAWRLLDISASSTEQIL
UniProt Q9BSF4: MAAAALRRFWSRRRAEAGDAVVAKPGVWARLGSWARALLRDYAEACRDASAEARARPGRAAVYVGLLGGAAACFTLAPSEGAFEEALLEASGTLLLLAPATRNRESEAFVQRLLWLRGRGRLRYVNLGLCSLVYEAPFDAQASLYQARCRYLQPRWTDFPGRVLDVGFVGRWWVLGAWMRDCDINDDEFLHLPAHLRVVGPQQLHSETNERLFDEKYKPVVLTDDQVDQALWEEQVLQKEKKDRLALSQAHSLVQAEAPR
UniProt Q9BVV7: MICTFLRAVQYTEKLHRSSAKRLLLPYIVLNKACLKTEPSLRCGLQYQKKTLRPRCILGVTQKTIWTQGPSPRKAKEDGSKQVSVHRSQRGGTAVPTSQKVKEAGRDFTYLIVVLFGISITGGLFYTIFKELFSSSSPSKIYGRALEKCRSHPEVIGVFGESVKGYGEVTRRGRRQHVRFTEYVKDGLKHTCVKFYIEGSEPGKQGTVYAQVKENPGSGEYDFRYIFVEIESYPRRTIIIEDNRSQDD
UniProt P04183: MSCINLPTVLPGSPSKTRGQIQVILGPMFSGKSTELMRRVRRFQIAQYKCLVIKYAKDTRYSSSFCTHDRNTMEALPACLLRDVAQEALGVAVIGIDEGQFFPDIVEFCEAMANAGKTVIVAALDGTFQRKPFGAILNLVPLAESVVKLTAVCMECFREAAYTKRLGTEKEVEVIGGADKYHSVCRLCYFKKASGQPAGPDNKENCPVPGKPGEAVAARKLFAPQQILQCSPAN
UniProt Q9NUY8: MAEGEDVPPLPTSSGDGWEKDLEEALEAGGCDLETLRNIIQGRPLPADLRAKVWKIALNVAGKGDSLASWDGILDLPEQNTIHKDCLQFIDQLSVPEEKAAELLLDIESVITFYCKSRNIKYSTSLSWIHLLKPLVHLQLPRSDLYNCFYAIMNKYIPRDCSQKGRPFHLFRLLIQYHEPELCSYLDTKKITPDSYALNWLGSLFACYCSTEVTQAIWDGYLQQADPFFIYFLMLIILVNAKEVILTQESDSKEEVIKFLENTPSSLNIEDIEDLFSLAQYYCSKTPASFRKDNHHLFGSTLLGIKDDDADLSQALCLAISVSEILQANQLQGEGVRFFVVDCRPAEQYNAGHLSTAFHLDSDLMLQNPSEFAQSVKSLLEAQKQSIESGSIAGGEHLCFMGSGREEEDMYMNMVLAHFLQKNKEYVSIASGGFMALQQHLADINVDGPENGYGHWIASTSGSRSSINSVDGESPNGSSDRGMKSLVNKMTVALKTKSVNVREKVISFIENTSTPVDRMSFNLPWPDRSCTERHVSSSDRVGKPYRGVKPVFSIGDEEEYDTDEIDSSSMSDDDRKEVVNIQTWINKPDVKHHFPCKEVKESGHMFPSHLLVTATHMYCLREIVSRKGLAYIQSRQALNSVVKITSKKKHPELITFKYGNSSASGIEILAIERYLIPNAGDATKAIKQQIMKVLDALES
UniProt Q96RS0: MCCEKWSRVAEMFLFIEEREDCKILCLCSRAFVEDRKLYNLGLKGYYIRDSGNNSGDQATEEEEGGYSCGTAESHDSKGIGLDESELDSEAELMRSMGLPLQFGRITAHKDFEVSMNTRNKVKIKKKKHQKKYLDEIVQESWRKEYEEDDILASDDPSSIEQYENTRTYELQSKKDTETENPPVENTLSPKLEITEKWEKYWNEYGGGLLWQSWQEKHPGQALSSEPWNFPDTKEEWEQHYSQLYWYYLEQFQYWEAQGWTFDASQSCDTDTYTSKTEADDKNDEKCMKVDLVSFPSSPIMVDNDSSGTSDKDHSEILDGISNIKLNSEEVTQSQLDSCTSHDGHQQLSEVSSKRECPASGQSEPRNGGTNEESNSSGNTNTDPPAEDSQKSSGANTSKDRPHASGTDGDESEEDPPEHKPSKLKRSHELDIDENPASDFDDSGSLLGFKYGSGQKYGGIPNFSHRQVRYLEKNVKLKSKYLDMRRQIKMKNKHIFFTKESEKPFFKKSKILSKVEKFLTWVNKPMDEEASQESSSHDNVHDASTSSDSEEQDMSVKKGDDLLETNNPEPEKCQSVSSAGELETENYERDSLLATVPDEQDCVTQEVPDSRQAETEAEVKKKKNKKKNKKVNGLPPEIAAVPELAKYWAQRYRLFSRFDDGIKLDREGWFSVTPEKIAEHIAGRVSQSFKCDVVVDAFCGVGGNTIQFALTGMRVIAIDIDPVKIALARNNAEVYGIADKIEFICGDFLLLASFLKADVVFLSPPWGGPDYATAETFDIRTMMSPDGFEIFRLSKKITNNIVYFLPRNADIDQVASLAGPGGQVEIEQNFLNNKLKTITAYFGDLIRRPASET
UniProt Q9P016: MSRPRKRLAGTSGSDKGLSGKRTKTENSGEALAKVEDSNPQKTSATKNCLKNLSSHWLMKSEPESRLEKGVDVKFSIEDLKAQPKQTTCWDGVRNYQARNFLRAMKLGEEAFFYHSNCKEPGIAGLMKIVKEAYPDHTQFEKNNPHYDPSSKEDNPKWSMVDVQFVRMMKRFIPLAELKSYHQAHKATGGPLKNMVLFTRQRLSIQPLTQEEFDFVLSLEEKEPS

What follows are targets tested with CON(C)C(=O)N1N=C(c2cc(F)ccc2F)S[C@@]1(CCCN)c1ccccc1 [filanesib] (assay: log2 fold change, soluble protein after heating vs DMSO (PISA); higher = thermal stabilisation; K562 cells, 10 uM, 30 min; active = over 0.2 and 3.5 SD of the protein, either way, in both replicates (recomputed)).
Procedure, shortened: (§1)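 K562 cells at 2×10^6 cells/mL were given 10 μM compound for 30 min. Aliquots then went through 3 min of heating across 48°C-58°C, were pooled, and were extracted in PBS with 0.5% NP-40 at 4°C, and the supernatant after 21,000xg for 90 min was quantified by TMTpro 16plex LC-MS/MS with channel sums equalised. Thermal stability relative to control samples, from duplicates, is given as log2 fold change.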

log2 fold change, inactive:
TFE3 (UniProt P19532) -0.192
TCEAL1 isoform 2 (UniProt Q15170) 0.277
THRAP3 (UniProt Q9Y2W1) 0.155
THADA (UniProt Q6YHU6) -0.18
TCOF1 isoform 6 (UniProt Q13428) -0.087
TIMM44 (UniProt O43615) -0.229
TIMM29 (UniProt Q9BSF4) 0.041
TIMM21 (UniProt Q9BVV7) -0.171
TKT, A0A0B4J1R6 -0.04
TCTN3 (UniProt Q6NUS6) 0.293

log2 fold change, active:
TK1 (UniProt P04183) -0.258

These targets were tested with CO[C@H]1C[C@@H]2CC[C@@H](C)[C@@](O)(O2)C(=O)C(=O)N2CCCC[C@H]2C(=O)O[C@H]([C@H](C)C[C@@H]2CC[C@H](n3cnnn3)[C@H](OC)C2)CC(=O)[C@H](C)/C=C(\C)[C@@H](O)[C@@H](OC)C(=O)[C@H](C)C[C@H](C)/C=C/C=C/C=C/1C [zotarolimus] in the same assay as above.
Procedure, shortened: as §1

log2 fold change, inactive:
TERF2IP (UniProt Q9NYB0) 0.045
TBC1D23 (UniProt Q9NUY8) -0.002
TFAM (UniProt Q00059) 0.01
TGS1 (UniProt Q96RS0) 0.123
TIPRL (UniProt O75663) -0.013
TFCP2 (UniProt Q12800) 0.118
TBC1D5 isoform 2 (UniProt Q92609) 0.048
TDRD7 (UniProt Q8NHU6) -0.065
TBC1D20 isoform 3 (UniProt Q96BZ9) 0.136
TJP1 (UniProt Q07157) 0.03
TFPI (UniProt P10646) -0.145
TBP (UniProt P20226) -0.1
TBRG4 (UniProt Q969Z0) -0.007
TJP2 isoform 7 (UniProt Q9UDY2) 0.068
TIFA (UniProt Q96CG3) 0.242
THYN1 (UniProt Q9P016) 0.015
TBCD (UniProt Q9BTW9) 0.049
TBK1 (UniProt Q9UHD2) -0.037
TBC1D24 (UniProt Q9ULP9) 0.006
TK2 isoform 6 (UniProt O00142) -0.196
TEX2 isoform 2 (UniProt Q8IWB9) 0.036
TCEAL1 isoform 2 (UniProt Q15170) -0.234
THRAP3 (UniProt Q9Y2W1) -0.117
THADA (UniProt Q6YHU6) -0.008
TCOF1 isoform 6 (UniProt Q13428) -0.062
TIMM44 (UniProt O43615) 0.027
TCIRG1 (UniProt Q13488) 0.068
TIMM29 (UniProt Q9BSF4) -0.058
TK1 (UniProt P04183) -0.023
TIMM21 (UniProt Q9BVV7) 0.03
TEX30 (UniProt Q5JUR7) 0.031
TKT, A0A0B4J1R6 -0.109
TCF25 (UniProt Q9BQ70) -0.036
THAP9 (UniProt Q9H5L6) -0.139

log2 fold change, active:
TENT5C (UniProt Q5VWP2) -0.56
TGFBI (UniProt Q15582) -0.892

The targets below were run with COc1cc(C(=O)O)ccc1NC(=O)[C@@H]1N[C@@H](CC(C)(C)C)[C@](C#N)(c2ccc(Cl)cc2F)[C@H]1c1cccc(Cl)c1F [idasanutlin] in the same assay as above.
Procedure, shortened: as §1

log2 fold change, inactive:
TERF2IP (UniProt Q9NYB0) 0.025
TBC1D23 (UniProt Q9NUY8) 0.068
TFAM (UniProt Q00059) 0.046
TGS1 (UniProt Q96RS0) -0.005
TIPRL (UniProt O75663) -0.104
TBC1D5 isoform 2 (UniProt Q92609) -0.052
TDRD7 (UniProt Q8NHU6) 0.119
TBC1D20 isoform 3 (UniProt Q96BZ9) -0.184
TGFBI (UniProt Q15582) 0.084
TJP1 (UniProt Q07157) 0.001
TBP (UniProt P20226) -0.076
TFDP1 (UniProt Q14186) -0.027
TBRG4 (UniProt Q969Z0) -0.021
TJP2 isoform 7 (UniProt Q9UDY2) -0.017
THYN1 (UniProt Q9P016) -0.011
TBCD (UniProt Q9BTW9) -0.091
TBK1 (UniProt Q9UHD2) 0.046
TBC1D24 (UniProt Q9ULP9) -0.127
TK2 isoform 6 (UniProt O00142) 0.126
TEX2 isoform 2 (UniProt Q8IWB9) 0.037
THRAP3 (UniProt Q9Y2W1) 0.12
THADA (UniProt Q6YHU6) -0.081
TIMM44 (UniProt O43615) -0.042
TCIRG1 (UniProt Q13488) 0.143
TIMM29 (UniProt Q9BSF4) -0.096
TK1 (UniProt P04183) -0.011
TIMM21 (UniProt Q9BVV7) -0.078
TEX30 (UniProt Q5JUR7) -0.02
TKT, A0A0B4J1R6 -0.166
TCF25 (UniProt Q9BQ70) -0.366
THAP9 (UniProt Q9H5L6) 0.008
